Results taken from PMC7140434.
Results are given in words; binding and its absence hold for the method and conditions named. Binding seen in cells or lysates may run through a third protein. Here binding means that the protein was enriched with, or labelled near, the bait; the list need not be complete. One block for each molecule: values may come before it.

What was measured:
APEX2-emerin [1] = target: T1, APEX2-emerin (UniProt P50402); assay: proximity labelling; standard APEX2 approach: HeLa cells transfected with APEX2-emerin or GFP-APEX2; 500 µM biotin-phenol 30 min, 1 mM H2O2 1 min at room temperature; RIPA lysate bound to Neutravidin beads; bound fraction analysed by immunoblotting
T1 sequence: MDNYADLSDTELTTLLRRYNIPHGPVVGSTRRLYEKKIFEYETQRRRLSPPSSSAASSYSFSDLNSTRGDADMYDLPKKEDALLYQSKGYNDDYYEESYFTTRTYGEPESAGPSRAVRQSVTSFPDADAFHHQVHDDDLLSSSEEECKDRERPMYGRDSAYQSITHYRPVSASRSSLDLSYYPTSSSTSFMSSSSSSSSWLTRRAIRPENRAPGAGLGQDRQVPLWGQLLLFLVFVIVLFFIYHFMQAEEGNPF

APEX2-emerin [2] = target: T1, APEX2-emerin; assay: proximity labelling; standard APEX2 approach: HeLa cells transfected with APEX2-emerin or GFP-APEX2, compared by SILAC (forward and reverse); Neutravidin eluates analysed by quantitative mass spectrometry
APEX2-emerin, P50402 = target: T2, APEX2-emerin, P50402; assay: proximity labelling; standard APEX2 approach: HeLa cells transfected with APEX2-emerin or GFP-APEX2; 500 µM biotin-phenol 30 min, 1 mM H2O2 1 min at room temperature; RIPA lysate bound to Neutravidin beads; bound fraction analysed by immunoblotting; details: remark: other sources report otherwise
T2 chain: T1 sequence

binding (APEX2-emerin [1]): binds | binding (APEX2-emerin [2]): binds
Molecule: lamin A (from UniProt P02545 1-646)

binding (APEX2-emerin, P50402): binds
B1: lamin C, P02545-2 1-572 (protein)
chain: METPSQRRATRSGAQASSTPLSPTRITRLQEKEDLQELNDRLAVYIDRVRSLETENAGLRLRITESEEVVSREVSGIKAAYEAELGDARKTLDSVAKERARLQLELSKVREEFKELKARNTKKEGDLIAAQARLKDLEALLNSKEAALSTALSEKRTLEGELHDLRGQVAKLEAALGEAKKQLQDEMLRRVDAENRLQTMKEELDFQKNIYSEELRETKRRHETRLVEIDNGKQREFESRLADALQELRAQHEDQVEQYKKELEKTYSAKLDNARQSAERNSNLVGAAHEELQQSRIRIDSLSAQLSQLQKQLAAKEAKLRDLEDSLARERDTSRRLLAEKEREMAEMRARMQQQLDEYQELLDIKLALDMEIHAYRKLLEGEEERLRLSPSPTSQRSRGRASSHSSQTQGGGSVTKKRKLESTESRSSFSQHARTSGRVAVEEVDEEGKFVRLRNKSNEDQSMGNWQIKRQNGDDPLLTYRFPPKFTLKAGQVVTIWAAGAGATHSPPTDLVWKAQNTWGCGNSLRTALINSTGEEVAMRKLVRSVTVVEDDEDEDGDDLLHHHHVSGSRR
